The source of these data is publication PMC9360443.

Sequences of proteins named here, by UniProt entry; tags and fusion partners are left off.
UniProt P98170: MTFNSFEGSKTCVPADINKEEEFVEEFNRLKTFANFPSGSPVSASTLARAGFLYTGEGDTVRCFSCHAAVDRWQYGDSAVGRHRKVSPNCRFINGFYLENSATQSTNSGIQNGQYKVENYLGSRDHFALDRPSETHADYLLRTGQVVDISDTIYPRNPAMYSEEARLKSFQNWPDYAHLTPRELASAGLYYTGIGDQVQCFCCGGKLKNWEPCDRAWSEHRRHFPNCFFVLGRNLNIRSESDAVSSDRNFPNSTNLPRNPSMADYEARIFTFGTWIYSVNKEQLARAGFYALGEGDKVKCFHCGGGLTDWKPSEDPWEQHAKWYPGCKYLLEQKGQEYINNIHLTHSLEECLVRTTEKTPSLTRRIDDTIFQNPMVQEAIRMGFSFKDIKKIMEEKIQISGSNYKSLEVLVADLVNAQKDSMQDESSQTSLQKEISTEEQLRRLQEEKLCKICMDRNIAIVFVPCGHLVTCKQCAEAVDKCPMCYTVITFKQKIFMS

For experiment [1], the target named is T1, FLAG-LATS1^WT (human) (UniProt O95835).
T1 sequence: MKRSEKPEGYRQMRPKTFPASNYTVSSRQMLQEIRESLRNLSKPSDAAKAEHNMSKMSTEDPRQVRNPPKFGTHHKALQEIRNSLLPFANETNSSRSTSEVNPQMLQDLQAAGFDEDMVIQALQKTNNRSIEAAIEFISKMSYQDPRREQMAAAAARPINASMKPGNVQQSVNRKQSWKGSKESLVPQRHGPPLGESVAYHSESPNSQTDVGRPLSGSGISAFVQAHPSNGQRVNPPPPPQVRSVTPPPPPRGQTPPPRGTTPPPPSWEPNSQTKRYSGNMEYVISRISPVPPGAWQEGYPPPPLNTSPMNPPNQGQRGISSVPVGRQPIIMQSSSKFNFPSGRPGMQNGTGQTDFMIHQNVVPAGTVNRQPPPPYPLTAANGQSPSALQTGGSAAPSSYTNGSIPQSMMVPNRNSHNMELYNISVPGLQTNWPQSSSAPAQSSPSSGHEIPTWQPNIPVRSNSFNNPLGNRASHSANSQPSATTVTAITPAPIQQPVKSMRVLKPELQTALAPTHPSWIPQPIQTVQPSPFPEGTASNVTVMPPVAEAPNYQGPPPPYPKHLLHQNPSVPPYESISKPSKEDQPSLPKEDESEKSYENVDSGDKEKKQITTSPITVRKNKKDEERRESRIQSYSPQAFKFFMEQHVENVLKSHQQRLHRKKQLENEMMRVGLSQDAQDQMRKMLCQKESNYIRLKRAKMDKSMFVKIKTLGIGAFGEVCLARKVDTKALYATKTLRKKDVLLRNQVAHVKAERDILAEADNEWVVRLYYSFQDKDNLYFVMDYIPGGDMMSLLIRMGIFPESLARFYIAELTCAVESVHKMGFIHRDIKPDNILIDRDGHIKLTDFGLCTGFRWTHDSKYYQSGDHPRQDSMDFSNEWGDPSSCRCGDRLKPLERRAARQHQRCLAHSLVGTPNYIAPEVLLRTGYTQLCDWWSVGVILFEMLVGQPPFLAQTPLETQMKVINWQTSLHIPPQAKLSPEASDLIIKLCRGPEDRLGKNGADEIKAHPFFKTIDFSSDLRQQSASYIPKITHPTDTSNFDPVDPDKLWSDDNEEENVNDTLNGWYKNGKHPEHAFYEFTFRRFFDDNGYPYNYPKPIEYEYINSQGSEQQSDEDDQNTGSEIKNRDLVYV
In words: co-IP; A375 lysate, FLAG-LATS1 (WT or KD) immunoprecipitated with anti-FLAG beads, GFP-SMAC and HA-RASSF1A co-transfected, serum-deprived; 1% NP40, 20 mM HEPES, 300 mM NaCl, 1 mM EDTA, 1 mM EGTA, 10 mM NaF; MST2 or C-IAP1 siRNA where indicated.

Experiment [2] deals with T1, FLAG-LATS1^WT (human). In words: co-IP; A375 lysate, FLAG-LATS1 immunoprecipitated with anti-FLAG beads, with HA-RASSF1A or empty vector; 1% NP40, 150 mM NaCl lysis buffer.
Experiment [3] deals with T1, FLAG-LATS1^WT (human). Nature of the experiment: co-IP; A375 lysate, FLAG-LATS1 (WT or KD) immunoprecipitated with anti-FLAG beads, GFP-SMAC and HA-RASSF1A co-transfected, serum-deprived; 1% NP40, 20 mM HEPES, 300 mM NaCl, 1 mM EDTA, 1 mM EGTA, 10 mM NaF; MST2 or C-IAP1 siRNA where indicated. The source holds these as a separate data set.

No constants are given. Whether binding was seen depends on the method and setting. In cells and extracts the contact can be indirect. Some entries that bind do so weakly or less than the wild type. Where a sequence is shown, tags or fusion partners need not be part of it.

On to XIAP (from UniProt P98170 1-497), for which, in experiment [1], the binding result was “binds”.

B1: HA-RASSF1A (protein, UniProt Q9NS23-2 1-340)
chain: MSGEPELIELRELAPAGRAGKGRTRLERANALRIARGTACNPTRQLVPGRGHRFQPAGPATHTWCDLCGDFIWGVVRKGLQCAHCKFTCHYRCRALVCLDCCGPRDLGWEPAVERDTNVDEPVEWETPDLSQAEIEQKIKEYNAQINSNLFMSLNKDGSYTGFIKVQLKLVRPVSVPSSKKPPSLQDARRGPGRGTSVRRRTSFYLPKDAVKHLHVLSRTRAREVIEALLRKFLVVDDPRKFALFERAERHGQVYLRKLLDDEQPLRLRLLAGPSDKALSFVLKENDSGEVNWDAFSMPELHNFLRILQREEEEHLRQILQKYSYCRQKIQEALHACPLG
Regarding B1, the binding result in experiment [2] and in experiment [3] was “binds” throughout.
